In all, about 33,000 sequences were measured (“E-score (-0.5 to 0.5)”: median about -0.015, highest 2% from about 0.3 on). This is one part of the list.
molecular target: T1, Abf1 (UniProt P14164); assay: PBM E-score (8-mer binding enrichment) (E-score (-0.5 to 0.5)); higher = stronger / more preferred TF binding; details: protein concentration: 200 nM; construct: GST-full length
T1 sequence: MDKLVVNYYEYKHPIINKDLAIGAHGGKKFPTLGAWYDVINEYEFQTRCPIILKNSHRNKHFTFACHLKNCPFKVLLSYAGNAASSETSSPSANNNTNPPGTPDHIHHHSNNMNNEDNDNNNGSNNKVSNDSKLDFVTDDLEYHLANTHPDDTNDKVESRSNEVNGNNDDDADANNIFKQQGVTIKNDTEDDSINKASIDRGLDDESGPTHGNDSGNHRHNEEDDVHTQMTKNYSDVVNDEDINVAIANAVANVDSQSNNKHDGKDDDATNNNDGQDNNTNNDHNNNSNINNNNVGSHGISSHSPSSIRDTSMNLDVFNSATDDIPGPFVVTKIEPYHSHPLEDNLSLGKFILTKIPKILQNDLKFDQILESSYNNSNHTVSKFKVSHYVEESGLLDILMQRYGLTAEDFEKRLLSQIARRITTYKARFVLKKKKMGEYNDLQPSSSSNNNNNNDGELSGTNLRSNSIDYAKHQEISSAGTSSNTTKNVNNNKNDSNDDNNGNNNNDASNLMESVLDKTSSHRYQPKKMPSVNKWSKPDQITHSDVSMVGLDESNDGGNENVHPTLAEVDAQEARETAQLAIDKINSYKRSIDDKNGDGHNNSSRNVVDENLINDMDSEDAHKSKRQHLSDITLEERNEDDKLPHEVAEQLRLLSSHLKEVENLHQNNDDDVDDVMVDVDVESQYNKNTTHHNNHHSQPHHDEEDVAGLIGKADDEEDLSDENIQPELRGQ
Protocol: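 Universal 'all 10-mer' protein binding microarrays (Agilent AMADID 015681) probed with GST-tagged S. cerevisiae TFs (full-length or DBD) made by in vitro transcription/translation (PURExpress), about 100-200 nM. Bound TF was detected with fluorescent anti-GST. Each ungapped 8-mer (which stands for itself and its reverse complement) is scored by the PBM enrichment score (E-score), a modified Wilcoxon-Mann-Whitney statistic from -0.5 to +0.5, computed with the Universal PBM Analysis Suite. Scale: above 0.35 generally sequence-specific binding.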

| Sequence | PBM E-score |
| --- | --- |
| CCACCCAC | -0.0376 |
| TACTGCGA | -0.0871 |
| CACGGACA | 0.162 |
| ATTCATTC | 0.125 |
| CATTTTAC | 0.154 |
| AGGCCCCT | -0.24 |
| TCAAACGA | 0.27 |
| GACATATA | 0.185 |
| CTCCATGA | -0.00266 |
| AAGCGTAA | -0.149 |
| AGCCATAA | 0.0101 |
| AGACATCC | 0.0489 |
| GAGACTTA | -0.00783 |
| CCGGAGGC | -0.269 |
| CTCTCACA | -0.0457 |
| CGTTACTA | 0.132 |
| AGTCACGA | 0.29 |
| AAGTCAAT | 0.0303 |
| ATTATCCG | 0.0891 |
| ATTCCTAC | -0.0909 |
| CTGTGAGA | -0.158 |
| AAGCGCTC | 0.0273 |
| GTGTGCCA | -0.0917 |
| AAGACCGA | -0.116 |
| AGCGCTAT | 0.0813 |

| Sequence | PBM E-score |
| --- | --- |
| CCGGGTTA | -0.16 |
| AGAACTCG | 0.225 |
| CAGGTTTC | -0.014 |
| GCAGTTCA | 0.014 |
| CGTTCTGA | 0.0984 |
| GGTCGGGA | -0.18 |
| CTCATTCC | -0.0576 |
| ACATACCA | -0.0707 |
| CCGGATCG | -0.245 |
| ACGTAACT | 0.112 |
| AACGTTAT | -0.00236 |
| ATTGCGGG | -0.154 |
| AGAGCAAC | -0.253 |
| AGTATTTG | 0.0658 |
| GATGACGC | 0.116 |
| CGGCAATC | 0.113 |
| GAAAGACA | 0.0333 |
| CGCATGGC | -0.102 |
| ATGAAGCA | -0.0574 |
| ACTTTGAC | 0.186 |
| TAGTCCCA | -0.0515 |
| ACTAGAAA | -0.0186 |
| AACCCAAC | 0.176 |
| GATTCCTA | -0.0961 |
| AGAGATGA | 0.0238 |

| Sequence | PBM E-score |
| --- | --- |
| AGCAGAAA | -0.00835 |
| ATGCTCAG | -0.162 |
| CATTAGCG | 0.0236 |
| AGCGCATG | -0.103 |
| CTCAATAC | 0.13 |
| GTTCATGA | 0.109 |
| AACCAGCG | -0.0976 |
| AGGGATAC | -0.0698 |
| CATTTTGC | 0.154 |
| CATCAACC | 0.142 |
| GGTCAACA | 0.0495 |
| ACAAACAC | -0.00556 |
| GTTGCTGA | 0.0212 |
| CCTTTTCC | -0.118 |
| TACGAGCA | 0.0778 |
| CGCTACCA | -0.0507 |
| AAACGAAC | 0.191 |
| GGAGATGA | 0.16 |
| GGTGATGA | 0.34 |
| CAACACCA | 0.104 |
| CTTCATTA | -0.0209 |
| ATATTCTA | 0.114 |
| CTACTTCC | -0.0498 |
| TAGTGATA | 0.433 |
| CGAGGTAC | 0.0949 |

| Sequence | PBM E-score |
| --- | --- |
| AAATGGGC | -0.177 |
| GGACCAAC | -0.232 |
| CGACATGA | 0.236 |
| TAGCTTCA | -0.123 |
| AGCTGACG | 0.0173 |
| CATATGTA | -0.124 |
| ATAGAGCA | 0.142 |
| GTCAGGTA | -0.0617 |
| CGTAAACA | 0.229 |
| GTATGTGA | 0.241 |
| CTGTCCTC | -0.116 |
| GACGTAGC | 0.228 |
| ACGCTACG | 0.184 |
| AACATCGG | -0.0578 |
| AATAAGGG | -0.0888 |
| CTATCCAA | -0.0136 |
| ACACCCAG | -0.231 |
| TCCCTTCA | 0.13 |
| AAACATTG | -0.251 |
| AGTAATTC | 0.17 |
| AGTCGAGC | -0.144 |
| AGAGAATA | 0.0964 |
| GGCACCTA | -0.0595 |
| AGCATCTA | -0.0946 |
| CACATCGG | -0.0848 |

Retrieved one by one from above (seven):

| Sequence | PBM E-score |
| --- | --- |
| CAACACCA | 0.104 |
| AGTATTTG | 0.0658 |
| AACCAGCG | -0.0976 |
| GGTCAACA | 0.0495 |
| GGACCAAC | -0.232 |
| AAACGAAC | 0.191 |
| GAAAGACA | 0.0333 |

Following part

| Sequence | PBM E-score |
| --- | --- |
| GTGCATTA | 0.156 |
| GCAGCCTA | -0.109 |
| TGTATACA | 0.132 |
| CGAATCCA | 0.176 |
| ATTTAAGC | 0.159 |
| ACGCGTCA | 0.237 |
| GTCTGACA | 0.133 |
| CCGACCGC | -0.0918 |
| TAGGACGA | 0.0645 |
| GAATCCGC | -0.248 |
| TAACATCA | 0.29 |
| ACCCAGGG | -0.318 |
| ACGTGAGC | -0.173 |
| AGACCGTG | 0.0697 |
| GCCTACAC | -0.192 |
| CTGCGGGA | -0.201 |
| ATTCGTGG | 0.296 |
| GCATCGAA | -0.0438 |
| AATCTACT | -0.024 |
| AGCTCGCC | 0.0319 |
| GTCTTGCA | -0.00339 |
| GCATCACA | 0.0163 |
| AACACCGA | -0.359 |
| AAGGGGTA | -0.211 |
| AGGTGCAT | -0.124 |

Part of the list above, field by field:
GCATCGAA
  PBM E-score = -0.0438
AATCTACT
  PBM E-score = -0.024

More results follow:

| Sequence | PBM E-score |
| --- | --- |
| CAGCTGTC | -0.0435 |
| GCTACCAC | -0.122 |
| TGCGTGAA | 0.112 |
| CGAAACAG | 0.0245 |
| AACTCTCC | -0.124 |
| AGACATGC | -0.118 |
| CGAGTCAA | -0.0144 |
| CGGCGCCG | 0.0376 |
| TAAACTCA | -0.0231 |
| AGCCACAC | -0.0651 |
| AAACTCAT | -0.145 |
| CGCAGATC | -0.0524 |
| CGACTACG | 0.124 |
| CTGATACA | 0.0567 |
| CATGAGCA | -0.118 |
| AAGTCTCC | 0.0627 |
| CAATTGTG | -0.121 |
| ATACCGTC | 0.213 |
| CTAGACTC | -0.358 |
| ATGCATGA | 0.071 |
| AAGCCTAA | 0.0733 |
| AGAGGTAG | -0.274 |
| TATAAAAA | 0.224 |
| CAATGAGC | -0.0647 |
| AAGTCATT | 0.24 |

| Sequence | PBM E-score |
| --- | --- |
| CGAGCCCA | -0.11 |
| AGTCGCCC | -0.324 |
| ACCGCTAC | -0.135 |
| CGGCGTCC | -0.0213 |
| CGCTATGA | 0.0621 |
| ATGCTAGG | -0.222 |
| AGTCGGAT | 0.136 |
| GTAAAACA | -0.137 |
| AGTAGTTA | -0.0177 |
| CTCGAGAA | -0.0621 |
| CGGCATCA | 0.0544 |
| GCTGGTAA | -0.0518 |
| CTTGAAGA | -0.0824 |
| ACAGCTTA | 0.0356 |
| ATAAGGAT | -0.00817 |
| CGTAATGA | 0.192 |
| TAATATGA | 0.261 |
| CGAGGGTA | -0.246 |
| ACTATACA | 0.0355 |
| TGATCCAA | 0.0142 |
| AATGACGT | 0.125 |
| CATCCGCG | 0.0531 |
| ATAGCTAT | 0.0215 |
| AAGTACTA | 0.18 |
| AAGTGGCC | -0.235 |

| Sequence | PBM E-score |
| --- | --- |
| ATTGCGTA | 0.0994 |
| TCCTTAAA | -0.00311 |
| CTGCTCCC | -0.106 |
| AGTACCCA | -0.149 |
| CACCCTCA | -0.055 |
| AAAAGCTA | -0.055 |
| ATAAAGTA | 0.207 |
| AAGTCTTG | -0.0508 |
| CGGGGCTA | -0.127 |
| CTTTACTC | 0.0152 |
| ACGCCCGG | -0.0761 |
| GGGTTTTA | -0.0154 |
| ATGTTACG | 0.087 |
| ACTCGCAA | 0.151 |
| CAGCCTCC | -0.349 |
| AGAGGAAG | -0.206 |
| CTCCAAGC | -0.119 |
| GGGCGCGA | 0.0618 |
| CATACATG | -0.0971 |
| AGCCCCGG | -0.277 |
| GGCCTCAA | 0.0563 |
| CCCGCGGC | -0.132 |
| CCCTCAGC | 0.00371 |
| AAATCACG | 0.284 |
| AAACCTGG | -0.118 |

In another format: entries from further up.
Sequence,PBM E-score
ATTGCGTA,0.0994
CTTTACTC,0.0152
ACGCCCGG,-0.0761
ATGTTACG,0.087
AGCCCCGG,-0.277
CCCGCGGC,-0.132
AAACCTGG,-0.118

Further results

| Sequence | PBM E-score |
| --- | --- |
| CACGAGCA | 0.0916 |
| CGTGAGAC | 0.2 |
| GATCAACA | 0.0153 |
| AATCTCGG | -0.0608 |
| ATCCGCGC | -0.119 |
| TCCGCAGA | 0.0445 |
| CAGATGAC | 0.058 |
| ACAACAGT | -0.0472 |
| AACGGCAT | 0.226 |
| CTCAGCGC | 0.0424 |
| GACTTACC | -0.249 |
| GGGGGGTA | -0.355 |
| AACAATTG | -0.0299 |
| ACTCAAAC | 0.106 |
| GGCCCCCA | -0.332 |
| CTACTAGC | 0.13 |
| ACGACCCC | -0.226 |
| GACGCTAC | 0.0935 |
| ACGGAAAG | 0.184 |

— the supplement of paper PMC3334620
